Among the data in PMC10656229 are binding values, retold here.

Chains of the proteins cited; added tags and fusions are not shown.
UniProt Q6SEG5: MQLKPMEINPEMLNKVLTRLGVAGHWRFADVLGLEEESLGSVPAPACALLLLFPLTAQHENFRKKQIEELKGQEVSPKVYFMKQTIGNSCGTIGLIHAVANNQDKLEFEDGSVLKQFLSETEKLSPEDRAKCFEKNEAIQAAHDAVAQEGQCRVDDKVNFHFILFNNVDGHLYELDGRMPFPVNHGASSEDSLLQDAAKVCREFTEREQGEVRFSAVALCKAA

No constants are given. Whether binding was seen depends on the method and setting. Binding seen in cells or lysates may run through a third protein. Here binding means that the protein was enriched with, or labelled near, the bait; the list need not be complete. Where a sequence is shown, tags or fusion partners need not be part of it.

For this experiment, the target named is Myc-UCHL1 (UniProt Q6SEG5). Kind of experiment: affinity purification with mass spectrometry; lysate of porcine granulosa cells precleared with magnetic beads, IP with anti-Myc overnight at 4 °C, beads washed three times, LC-MS/MS.

B1: voltage-dependent anion channel 2 (VDAC2) (protein, UniProt Q9MZ15 1-294)
chain: MASYGQTCPRPMCIPPSYADLGKAARDIFNKGFGFGLVKLDVKTKSCSGVEFSTSGSSNTDTGKVTGTLETKYKWCEYGLTFTEKWNTDNTLGTEIAIEDQICQGLKLTFDTTFSPNTGKKSGKIKSSYKRECVNLGCDVDFDFAGPAIHGSAVFGYEGWLAGYQMTFDSAKSKLTRNNFAVGYRTGDFQLHTNVNDGTEFGGSIYQKVCEDLDTSVNLAWTSGTNCTRFGIAAKYQLDPTASISAKVNNSSLIGVGYTQTLRPGVKLTLSALVDGKSINAGGHKLGLALELEA
Take B1: the binding result was “binds”.
